Assay results published in publication PMC6838151 (Scientific Reports, 2019).

Tested on: hASCs
Test: Confocal imaging of mitochondrial network (MitoRed) and F-actin (Phalloidin Atto 590) in hASCs
Type: cell-based, human
Settings: 20 µM, 24 h
Procedure: The mitochondrial network was visualized using MitoRed staining. After 24-hours treatment with either Ke, KeP or KeOP, the media were removed and replaced with MitoRed dye in 1:1000 dilution in fresh complete media. Cells were incubated for 30 minutes at 37 °C, then washed with Phosphate Buffered Saline (PBS), fixed with 4% paraformaldehyde (PFA) solution, washed three times and nuclei were counterstained with diamidino-2-phenylindole (DAPI).
In order to perform F-actin imaging, cells were fixed with 4% PFA solution, washed with PBS and then permeabilized using 0.5% TX-100 (incubation 15 minutes, room temperature). The cells were rinsed and incubated with Phalloidin-Atto 590 solution in PBS (dilution 1:1000) at 37 °C for 30 minutes in the dark. After washing, the cells were counterstained with DAPI.
Cells were observed and images were taken using confocal microscopy performed with a Leica TCS-SP8 laser scanning confocal microscope. Data were further processed with the use of ImageJ software.

Compound	growth pattern (phalloidin staining)
Clc1ccc([C@@]2(Cn3ccnc3)OC[C@H](COc3ccc(N4CCN(CP(c5ccccc5)c5ccccc5)CC4)cc3)O2)c(Cl)c1 (racemic) [KeP, Ph2PCH2-Ke]	loose growth pattern
CC(=O)N1CCN(c2ccc(OCC3COC(Cn4ccnc4)(c4ccc(Cl)cc4Cl)O3)cc2)CC1 (centres unmarked) [Ke, ketoconazole, reference compound]	multilayer growth pattern
